The data set is described as follows: in vitro. The conditions noted are these: PAMPA. In general terms: In PAMPA a lipid-coated filter parts donor from acceptor wells.

A word on the Papp: it is the rate of passage across a membrane or cell layer, normalised by area and donor concentration. Lower therefore signals poor permeation. `COc1cc2c(cc1OC)C(=O)C(CC1CCN(Cc3ccccc3)CC1)C2` (stereo unspecified) [DONEPEZIL] yielded a Papp at 18 h, 25 ug/ml of 6.53 ×10⁻⁶ cm/s.

The values are drawn from ChEMBL document CHEMBL5500373, “Lead optimization based design, synthesis, and pharmacological evaluation of quinazoline derivatives as multi-targeting agents for Alzheimer's disease treatment” (Eur J Med Chem, 2024).
